No constants are given. Whether binding was seen depends on the method and setting. Binding seen in cells or lysates may run through a third protein. Some entries that bind do so weakly or less than the wild type. For some assays here: Tags and fused reporters may be left off the sequences shown.

Amino acid sequences for entries named in this document (tags omitted). Residues count along the entry.
UniProt O75334: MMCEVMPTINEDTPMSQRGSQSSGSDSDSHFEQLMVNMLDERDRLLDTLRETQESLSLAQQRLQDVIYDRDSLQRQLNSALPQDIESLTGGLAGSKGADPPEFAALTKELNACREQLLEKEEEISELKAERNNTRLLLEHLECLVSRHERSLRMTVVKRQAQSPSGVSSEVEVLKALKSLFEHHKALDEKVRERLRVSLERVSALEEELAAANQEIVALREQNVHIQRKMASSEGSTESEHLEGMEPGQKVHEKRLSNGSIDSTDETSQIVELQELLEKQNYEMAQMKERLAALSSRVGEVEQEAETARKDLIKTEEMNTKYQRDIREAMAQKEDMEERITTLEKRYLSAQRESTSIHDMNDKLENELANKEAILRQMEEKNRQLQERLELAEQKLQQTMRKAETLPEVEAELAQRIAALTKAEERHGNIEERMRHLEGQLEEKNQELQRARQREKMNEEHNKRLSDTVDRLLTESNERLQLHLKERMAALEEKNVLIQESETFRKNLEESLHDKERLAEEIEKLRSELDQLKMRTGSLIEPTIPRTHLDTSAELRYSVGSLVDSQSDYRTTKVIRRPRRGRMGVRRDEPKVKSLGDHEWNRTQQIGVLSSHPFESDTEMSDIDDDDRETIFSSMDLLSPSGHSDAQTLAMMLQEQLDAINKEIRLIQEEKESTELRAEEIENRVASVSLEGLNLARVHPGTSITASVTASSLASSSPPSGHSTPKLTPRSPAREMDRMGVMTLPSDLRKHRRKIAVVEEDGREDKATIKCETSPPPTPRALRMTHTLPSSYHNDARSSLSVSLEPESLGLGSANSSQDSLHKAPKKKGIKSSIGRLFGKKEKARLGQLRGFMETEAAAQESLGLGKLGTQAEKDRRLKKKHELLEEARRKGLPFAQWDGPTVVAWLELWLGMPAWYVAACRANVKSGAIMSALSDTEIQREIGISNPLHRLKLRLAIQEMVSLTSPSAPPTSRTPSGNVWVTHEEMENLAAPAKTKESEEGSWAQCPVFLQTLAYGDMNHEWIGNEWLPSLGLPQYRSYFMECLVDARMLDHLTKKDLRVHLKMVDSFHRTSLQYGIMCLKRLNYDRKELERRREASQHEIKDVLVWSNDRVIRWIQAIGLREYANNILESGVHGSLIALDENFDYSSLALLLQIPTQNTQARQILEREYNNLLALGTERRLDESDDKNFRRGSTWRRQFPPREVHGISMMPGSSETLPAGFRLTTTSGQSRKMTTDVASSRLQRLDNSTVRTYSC
UniProt Q13332, residues 30-1948: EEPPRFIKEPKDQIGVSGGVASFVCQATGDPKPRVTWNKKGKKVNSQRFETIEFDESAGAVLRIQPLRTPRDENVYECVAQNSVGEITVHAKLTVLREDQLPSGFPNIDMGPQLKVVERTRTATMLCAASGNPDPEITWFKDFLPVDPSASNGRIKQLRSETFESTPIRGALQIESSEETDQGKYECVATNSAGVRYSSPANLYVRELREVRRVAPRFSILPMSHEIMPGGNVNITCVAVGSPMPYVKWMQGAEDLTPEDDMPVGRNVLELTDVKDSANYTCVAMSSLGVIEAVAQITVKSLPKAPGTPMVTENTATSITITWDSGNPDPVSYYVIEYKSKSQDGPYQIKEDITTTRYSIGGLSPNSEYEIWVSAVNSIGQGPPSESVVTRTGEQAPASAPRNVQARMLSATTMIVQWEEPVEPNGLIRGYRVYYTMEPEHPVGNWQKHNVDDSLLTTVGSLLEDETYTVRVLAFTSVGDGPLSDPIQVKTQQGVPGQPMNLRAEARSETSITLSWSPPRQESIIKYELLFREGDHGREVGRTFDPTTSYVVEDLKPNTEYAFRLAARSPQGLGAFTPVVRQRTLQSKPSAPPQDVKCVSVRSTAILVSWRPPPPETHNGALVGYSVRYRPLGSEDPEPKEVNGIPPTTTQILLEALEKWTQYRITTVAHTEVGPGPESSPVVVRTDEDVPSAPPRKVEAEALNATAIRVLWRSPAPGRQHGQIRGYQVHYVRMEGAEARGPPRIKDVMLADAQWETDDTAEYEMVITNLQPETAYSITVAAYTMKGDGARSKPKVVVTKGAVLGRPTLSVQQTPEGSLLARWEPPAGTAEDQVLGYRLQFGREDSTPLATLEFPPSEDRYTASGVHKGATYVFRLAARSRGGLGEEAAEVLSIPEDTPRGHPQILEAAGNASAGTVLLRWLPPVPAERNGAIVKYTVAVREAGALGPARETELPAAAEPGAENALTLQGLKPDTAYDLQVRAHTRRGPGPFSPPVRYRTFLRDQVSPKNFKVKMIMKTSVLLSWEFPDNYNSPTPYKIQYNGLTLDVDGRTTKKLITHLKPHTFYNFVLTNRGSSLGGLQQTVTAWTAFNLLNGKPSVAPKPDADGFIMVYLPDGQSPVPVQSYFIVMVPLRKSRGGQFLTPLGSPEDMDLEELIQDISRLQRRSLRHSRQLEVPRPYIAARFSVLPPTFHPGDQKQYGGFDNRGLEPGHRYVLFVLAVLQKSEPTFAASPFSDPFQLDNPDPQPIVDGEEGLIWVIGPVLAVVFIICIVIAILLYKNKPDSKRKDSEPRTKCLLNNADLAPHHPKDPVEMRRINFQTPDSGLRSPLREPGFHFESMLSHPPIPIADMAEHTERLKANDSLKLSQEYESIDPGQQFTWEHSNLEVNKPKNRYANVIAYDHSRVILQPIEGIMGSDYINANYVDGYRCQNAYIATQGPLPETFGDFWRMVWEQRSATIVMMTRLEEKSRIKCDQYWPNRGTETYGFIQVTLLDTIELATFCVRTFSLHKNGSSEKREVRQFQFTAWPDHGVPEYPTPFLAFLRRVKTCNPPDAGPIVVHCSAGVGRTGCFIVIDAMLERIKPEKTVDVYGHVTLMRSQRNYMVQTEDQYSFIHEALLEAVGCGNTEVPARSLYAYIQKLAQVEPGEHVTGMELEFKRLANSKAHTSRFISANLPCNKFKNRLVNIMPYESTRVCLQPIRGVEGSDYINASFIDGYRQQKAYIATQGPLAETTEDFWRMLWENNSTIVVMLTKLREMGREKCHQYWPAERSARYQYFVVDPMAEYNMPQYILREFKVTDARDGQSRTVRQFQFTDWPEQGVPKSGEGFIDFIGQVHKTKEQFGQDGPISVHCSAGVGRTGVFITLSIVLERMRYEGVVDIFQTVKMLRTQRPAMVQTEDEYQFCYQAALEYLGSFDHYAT
UniProt Q86UR5: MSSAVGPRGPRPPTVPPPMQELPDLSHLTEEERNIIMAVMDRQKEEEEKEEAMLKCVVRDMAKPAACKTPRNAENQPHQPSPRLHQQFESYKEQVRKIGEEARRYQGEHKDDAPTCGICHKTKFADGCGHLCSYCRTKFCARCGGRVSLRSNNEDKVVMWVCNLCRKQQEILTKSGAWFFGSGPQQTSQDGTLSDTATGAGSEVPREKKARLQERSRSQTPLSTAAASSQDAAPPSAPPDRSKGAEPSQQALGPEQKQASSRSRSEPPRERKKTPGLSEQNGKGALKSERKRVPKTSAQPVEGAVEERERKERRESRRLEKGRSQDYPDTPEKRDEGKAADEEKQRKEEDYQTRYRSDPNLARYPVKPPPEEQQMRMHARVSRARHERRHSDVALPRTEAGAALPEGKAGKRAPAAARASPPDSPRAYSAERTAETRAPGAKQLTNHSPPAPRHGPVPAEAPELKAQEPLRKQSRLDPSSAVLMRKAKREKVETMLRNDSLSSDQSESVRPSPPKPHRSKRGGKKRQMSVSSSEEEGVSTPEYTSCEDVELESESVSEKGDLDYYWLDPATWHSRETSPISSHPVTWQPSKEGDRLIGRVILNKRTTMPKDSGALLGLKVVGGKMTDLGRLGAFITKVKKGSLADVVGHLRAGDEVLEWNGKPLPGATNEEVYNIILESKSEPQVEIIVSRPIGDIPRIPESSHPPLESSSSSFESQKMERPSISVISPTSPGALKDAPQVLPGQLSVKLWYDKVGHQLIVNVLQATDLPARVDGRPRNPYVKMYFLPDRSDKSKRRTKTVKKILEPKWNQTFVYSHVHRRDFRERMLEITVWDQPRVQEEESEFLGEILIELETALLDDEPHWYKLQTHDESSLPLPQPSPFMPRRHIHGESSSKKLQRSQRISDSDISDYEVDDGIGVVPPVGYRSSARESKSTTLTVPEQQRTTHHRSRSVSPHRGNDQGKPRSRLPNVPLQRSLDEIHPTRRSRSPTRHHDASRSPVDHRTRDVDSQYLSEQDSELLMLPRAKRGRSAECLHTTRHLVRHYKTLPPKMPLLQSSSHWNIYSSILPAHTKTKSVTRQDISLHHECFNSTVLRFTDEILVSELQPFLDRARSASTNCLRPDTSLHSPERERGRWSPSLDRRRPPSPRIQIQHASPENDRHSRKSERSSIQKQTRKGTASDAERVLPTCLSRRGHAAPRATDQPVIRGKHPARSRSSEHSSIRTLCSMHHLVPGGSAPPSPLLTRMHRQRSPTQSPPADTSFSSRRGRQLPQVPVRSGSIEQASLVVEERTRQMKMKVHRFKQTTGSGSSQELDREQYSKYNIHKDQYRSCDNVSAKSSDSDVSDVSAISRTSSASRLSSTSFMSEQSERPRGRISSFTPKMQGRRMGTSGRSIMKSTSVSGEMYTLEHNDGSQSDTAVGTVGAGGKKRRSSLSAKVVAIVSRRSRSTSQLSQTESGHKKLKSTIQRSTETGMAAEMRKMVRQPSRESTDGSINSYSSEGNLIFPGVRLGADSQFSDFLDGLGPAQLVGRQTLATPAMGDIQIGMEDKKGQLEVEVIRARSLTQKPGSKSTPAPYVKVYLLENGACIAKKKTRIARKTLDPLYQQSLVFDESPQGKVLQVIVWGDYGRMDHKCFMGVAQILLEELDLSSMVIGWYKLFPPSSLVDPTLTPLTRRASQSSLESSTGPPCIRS
UniProt Q13136: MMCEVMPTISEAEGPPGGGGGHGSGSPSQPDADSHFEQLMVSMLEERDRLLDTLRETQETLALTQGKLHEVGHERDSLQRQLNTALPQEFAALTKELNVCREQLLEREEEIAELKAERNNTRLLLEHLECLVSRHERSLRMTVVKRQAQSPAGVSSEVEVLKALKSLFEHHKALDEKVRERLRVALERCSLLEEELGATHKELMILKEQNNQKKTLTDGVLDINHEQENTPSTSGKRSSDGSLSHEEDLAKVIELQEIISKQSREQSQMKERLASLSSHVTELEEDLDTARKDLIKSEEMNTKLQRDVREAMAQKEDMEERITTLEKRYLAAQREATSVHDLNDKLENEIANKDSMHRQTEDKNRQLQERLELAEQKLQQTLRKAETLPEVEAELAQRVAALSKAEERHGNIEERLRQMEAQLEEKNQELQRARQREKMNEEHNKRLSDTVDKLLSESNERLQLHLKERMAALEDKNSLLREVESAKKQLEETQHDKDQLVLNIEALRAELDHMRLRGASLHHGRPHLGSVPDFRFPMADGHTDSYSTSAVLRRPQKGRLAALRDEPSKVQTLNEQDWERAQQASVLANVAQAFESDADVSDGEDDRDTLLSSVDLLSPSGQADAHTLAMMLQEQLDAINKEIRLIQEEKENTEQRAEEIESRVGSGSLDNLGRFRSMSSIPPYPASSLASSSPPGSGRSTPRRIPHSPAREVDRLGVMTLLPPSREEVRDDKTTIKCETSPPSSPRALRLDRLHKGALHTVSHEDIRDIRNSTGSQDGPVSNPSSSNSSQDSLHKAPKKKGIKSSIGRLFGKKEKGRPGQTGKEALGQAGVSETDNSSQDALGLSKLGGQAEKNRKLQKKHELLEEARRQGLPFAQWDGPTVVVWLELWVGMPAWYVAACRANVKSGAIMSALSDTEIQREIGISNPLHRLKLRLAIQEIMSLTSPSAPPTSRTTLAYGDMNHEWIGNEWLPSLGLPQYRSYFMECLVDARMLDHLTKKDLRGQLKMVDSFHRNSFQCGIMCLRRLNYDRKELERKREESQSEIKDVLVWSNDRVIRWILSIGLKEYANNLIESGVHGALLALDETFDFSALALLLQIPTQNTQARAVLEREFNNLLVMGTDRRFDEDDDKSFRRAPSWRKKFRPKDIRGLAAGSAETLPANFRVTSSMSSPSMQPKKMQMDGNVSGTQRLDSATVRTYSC

Experiment [1] addresses T1, PIH1D2, LUMIER fusion (human) (UniProt Q8WWB5).
T1 sequence: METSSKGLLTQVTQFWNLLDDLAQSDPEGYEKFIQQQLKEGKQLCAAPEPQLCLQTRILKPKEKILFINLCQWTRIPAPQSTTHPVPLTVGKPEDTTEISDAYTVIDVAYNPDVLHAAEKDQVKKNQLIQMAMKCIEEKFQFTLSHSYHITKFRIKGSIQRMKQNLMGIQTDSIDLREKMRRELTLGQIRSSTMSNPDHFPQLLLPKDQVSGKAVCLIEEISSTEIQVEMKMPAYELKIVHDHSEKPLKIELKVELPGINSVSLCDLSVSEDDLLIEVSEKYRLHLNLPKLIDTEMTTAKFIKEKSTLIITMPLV
Kind of experiment: co-IP; LUMIER: RL fusion (prey) and 3xFLAG-FFL fusion (bait) transiently expressed in HEK293, anti-FLAG coated wells, HNTG buffer, 3 h at 4 °C; co-IP efficiency from luciferase activities.

The target in experiment [2] is FLAG-FFL-liprin-α2 (human) (UniProt O75334). Kind of experiment: co-IP; LUMIER in HeLa and HeLa-PIH1D2 cells: FLAG-FFL-liprin-α2 bait, RL-tagged partners as prey.
In experiment [3] the target is T2, SPAG1, LUMIER fusion (human) (UniProt Q07617).
T2 sequence: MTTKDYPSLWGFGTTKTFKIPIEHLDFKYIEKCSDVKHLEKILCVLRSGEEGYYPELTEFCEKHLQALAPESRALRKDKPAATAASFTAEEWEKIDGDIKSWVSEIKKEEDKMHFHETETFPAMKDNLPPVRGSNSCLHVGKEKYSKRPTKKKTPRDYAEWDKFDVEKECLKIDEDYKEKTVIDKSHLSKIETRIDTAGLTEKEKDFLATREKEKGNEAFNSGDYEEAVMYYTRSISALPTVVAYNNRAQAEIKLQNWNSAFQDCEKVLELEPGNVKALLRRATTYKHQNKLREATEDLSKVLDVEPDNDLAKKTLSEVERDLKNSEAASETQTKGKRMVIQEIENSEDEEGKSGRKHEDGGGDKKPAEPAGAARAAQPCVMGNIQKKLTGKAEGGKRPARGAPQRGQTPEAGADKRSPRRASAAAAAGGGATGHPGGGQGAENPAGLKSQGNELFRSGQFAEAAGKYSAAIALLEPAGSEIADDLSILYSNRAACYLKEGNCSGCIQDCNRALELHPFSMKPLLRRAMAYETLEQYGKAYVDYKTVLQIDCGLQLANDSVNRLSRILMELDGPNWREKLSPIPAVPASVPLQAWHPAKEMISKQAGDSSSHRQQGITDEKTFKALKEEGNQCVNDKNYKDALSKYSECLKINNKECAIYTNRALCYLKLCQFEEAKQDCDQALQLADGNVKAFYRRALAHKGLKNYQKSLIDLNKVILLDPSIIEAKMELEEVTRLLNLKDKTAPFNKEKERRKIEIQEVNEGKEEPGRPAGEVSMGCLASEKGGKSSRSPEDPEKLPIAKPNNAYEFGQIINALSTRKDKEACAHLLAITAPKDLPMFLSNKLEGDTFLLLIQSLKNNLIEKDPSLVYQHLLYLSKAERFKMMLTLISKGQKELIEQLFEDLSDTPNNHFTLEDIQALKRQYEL
Briefly: co-IP; LUMIER: RL fusion (prey) and 3xFLAG-FFL fusion (bait) transiently expressed in HEK293, anti-FLAG coated wells, HNTG buffer, 3 h at 4 °C; co-IP efficiency from luciferase activities.

With “FLAG-FFL-liprin-α2 (from UniProt O75334 1-1257)”, the binding result in experiment [1] is “binds”.

In the case of “PTPRS, LUMIER fusion (from UniProt Q13332 30-1948)”, in experiment [2], the binding entry is given as “binds”.

“RIMS1, LUMIER fusion (from UniProt Q86UR5 1-1692)”: the binding result in experiment [3] and in experiment [2] was “binds” each time.

With “liprin-α1, LUMIER fusion (from UniProt Q13136 1-1202)”, in experiment [2], the binding entry is listed as “binds”.

(Values after article PMC5974087.)
